Data reported in doi:10.1101/2022.03.06.483161.

Sequences of proteins named here, by UniProt entry; tags and fusion partners are left off.
UniProt O00570: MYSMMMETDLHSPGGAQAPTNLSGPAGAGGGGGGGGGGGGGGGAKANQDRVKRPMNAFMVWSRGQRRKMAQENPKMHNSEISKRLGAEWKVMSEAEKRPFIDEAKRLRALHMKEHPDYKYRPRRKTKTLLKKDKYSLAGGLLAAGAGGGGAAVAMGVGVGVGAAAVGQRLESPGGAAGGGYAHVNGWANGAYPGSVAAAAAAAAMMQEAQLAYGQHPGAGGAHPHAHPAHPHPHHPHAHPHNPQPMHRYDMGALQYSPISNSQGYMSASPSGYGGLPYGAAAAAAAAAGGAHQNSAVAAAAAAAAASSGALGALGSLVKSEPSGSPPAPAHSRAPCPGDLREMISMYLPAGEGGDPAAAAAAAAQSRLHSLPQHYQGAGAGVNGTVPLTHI
UniProt Q99081: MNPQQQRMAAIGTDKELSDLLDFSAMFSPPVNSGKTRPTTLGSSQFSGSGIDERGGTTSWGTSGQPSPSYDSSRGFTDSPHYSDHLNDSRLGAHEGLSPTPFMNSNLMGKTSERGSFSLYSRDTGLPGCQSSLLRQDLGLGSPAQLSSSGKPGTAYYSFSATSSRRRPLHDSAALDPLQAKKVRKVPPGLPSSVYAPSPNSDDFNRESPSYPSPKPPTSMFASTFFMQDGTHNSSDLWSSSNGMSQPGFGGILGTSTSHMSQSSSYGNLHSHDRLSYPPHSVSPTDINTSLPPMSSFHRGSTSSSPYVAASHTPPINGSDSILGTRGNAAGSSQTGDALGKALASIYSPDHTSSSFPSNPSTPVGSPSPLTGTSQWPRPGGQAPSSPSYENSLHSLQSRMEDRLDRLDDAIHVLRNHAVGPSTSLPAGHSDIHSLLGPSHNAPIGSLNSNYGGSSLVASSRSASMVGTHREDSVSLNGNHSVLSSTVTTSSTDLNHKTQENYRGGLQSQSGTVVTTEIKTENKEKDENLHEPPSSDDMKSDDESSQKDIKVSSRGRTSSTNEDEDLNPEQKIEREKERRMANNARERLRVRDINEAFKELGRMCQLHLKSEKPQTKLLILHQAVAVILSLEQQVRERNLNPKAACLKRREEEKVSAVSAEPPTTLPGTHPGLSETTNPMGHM

Biological target: T1, FLAG-NKX2-1 (UniProt P43699)
T1 sequence: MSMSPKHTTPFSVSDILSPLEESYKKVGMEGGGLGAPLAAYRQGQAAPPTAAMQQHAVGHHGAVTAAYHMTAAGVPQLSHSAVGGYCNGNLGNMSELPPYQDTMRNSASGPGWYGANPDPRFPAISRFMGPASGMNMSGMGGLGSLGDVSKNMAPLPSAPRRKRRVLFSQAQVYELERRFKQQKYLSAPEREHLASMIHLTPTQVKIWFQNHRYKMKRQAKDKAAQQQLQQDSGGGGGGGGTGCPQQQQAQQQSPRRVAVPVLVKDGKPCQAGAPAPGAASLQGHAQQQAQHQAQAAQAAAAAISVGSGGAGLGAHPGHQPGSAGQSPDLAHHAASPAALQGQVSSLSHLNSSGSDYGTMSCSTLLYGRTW
Test: affinity purification with mass spectrometry

| binding | Substance |
| --- | --- |
| binds | NFIB (from UniProt O00712 1-420) |
| binds | SOX1 (endogenous) (from UniProt O00570 1-391) |
| binds | TCF12 (from UniProt Q99081 1-682) |

These are yes or no findings as the source states them, for the method shown. Binding seen in cells or lysates may run through a third protein. Here binding means that the protein was enriched with, or labelled near, the bait; the list need not be complete. Tags and fused reporters may be left off the sequences shown.
